The series can be described thus: CD spectroscopy of Sgf29 and variants. The series is classed as physicochemical, Homo sapiens. The conditions noted are these: 0.1 mg ml^-1 protein, 10 mM NaH2PO4 pH 7.5, 180–260 nm, average of 10 measurements; multiple batches.

Numbering of substitutions follows the chain as printed. In names and notes the source's numbering stands. Some compounds share one wording; it may come from a single statement.

B1: D266E: Sgf29 variant, substitution of D266 by glutamic acid (protein)
chain: RRGVLMTLLQQSAMTLPLWIGKPGDKPPPLCGAIPASGDYVARPGDKVAARVKAVDGDEQWILAEVVSYSHATNKYEVDDIDEEGKERHTLSRRRVIPLPQWKANPETDPEALFQKEQLVLALYPQTTCFYRALIHAPPQRPQDDYSVLFEETSYADGYSPPLNVAQRYVVACKEPKKK
modifications: left off: 6xHis, end not stated, cleaved
notes: Sgf29 variant, substitution of D266 by glutamic acid
For the molecule B1, the “CD spectrum compared to WT Sgf29” value is “very similar CD spectra”.

B2: D266Y: Sgf29 variant, D266 substituted by tyrosine (protein)
chain: B1 chain with E152Y
modifications: left off: 6xHis, end not stated, cleaved
notes: Sgf29 variant, D266 substituted by tyrosine
On to B2, for which the “CD spectrum compared to WT Sgf29” value was “significantly different spectra”.

B3: D266W: Sgf29 variant, D266 substituted by tryptophan (protein)
chain: B1 chain with E152W
modifications: left off: 6xHis, end not stated, cleaved
notes: Sgf29 variant, D266 substituted by tryptophan
As for B3, the “CD spectrum compared to WT Sgf29” value is given as “significantly different spectra”.

B4: Y238F: Sgf29 variant, Y238 substituted by phenylalanine (protein)
chain: B1 chain with Y124F, E152D
modifications: left off: 6xHis, end not stated, cleaved
notes: Sgf29 variant, Y238 substituted by phenylalanine
On to B4, for which the “CD spectrum compared to WT Sgf29” value is “ranging from wild-type like to a distinctly altered spectrum”.

B5: D266A: Sgf29 variant, D266 substituted by alanine (protein)
chain: B1 chain with E152A
modifications: left off: 6xHis, end not stated, cleaved
notes: Sgf29 variant, D266 substituted by alanine
Consider B5, for which the “CD spectrum compared to WT Sgf29” value is on record as “significantly different spectra”.

B6: D266N: Sgf29 variant, D266 substituted by asparagine (protein)
chain: B1 chain with E152N
modifications: left off: 6xHis, end not stated, cleaved
notes: Sgf29 variant, D266 substituted by asparagine
As for B6, the “CD spectrum compared to WT Sgf29” value is recorded as “slightly altered spectrum”.

B7: D266F: Sgf29 variant, D266 substituted by phenylalanine (protein)
chain: B1 chain with E152F
modifications: left off: 6xHis, end not stated, cleaved
notes: Sgf29 variant, D266 substituted by phenylalanine
B7: the “CD spectrum compared to WT Sgf29” value is “significantly different spectra”.
